Reference: PubChem BioAssay AID504834 (National Center for Advancing Translational Sciences (NCATS), 2011)
The campaign covered roughly 320,000 compounds. About 22,000 (6.9%) were called active. Inconclusive means that the source gave no clear call. Such entries were picked first, then a sample of the others. Calls come from the whole dose curve; as a rule, active = well fitted inhibition curve with a large enough effect; inconclusive = small, poorly fitted or top-dose-only effect, or another doubt; inactive = no such curve, though single readings can be large or run the other way. Potencies beside an inconclusive call are fits to weak or partial responses and may not hold up.
Potency is the fitted concentration of half-maximal effect.

Assay: Primary qHTS for delayed death inhibitors of the malarial parasite plastid, 96 hour incubation
Settings: P. falciparum luciferase reporter growth; series mostly up to 28.7 µM
Method in brief: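 Delayed-death screen, second-generation endpoint: infected erythrocytes, 2% hematocrit, 0.05% parasitemia final; 96 hours at 37 C, 5% CO2; luciferase detection reagent; luminescence decrease equals reduced growth.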
With `Cc1ccc(Cn2nc(C)c(NC(=O)C3CC3)c2C)cc1` the Potency was inconclusive: 0.131 µM [inhibitor, full curve, poor fit]. With `O=C(Nc1nccs1)c1csc2c1CCCC2` the Potency was inconclusive: 11.7 µM [inhibitor, partial curve, poor fit]. In the case of `Cc1nc2ccccc2n1CC(=O)c1ccc(O)c(O)c1`, the Potency is reported as inconclusive: 16.5 µM [inhibitor, single point]. For `Cc1cccc2cc(CN(Cc3ccco3)C(=O)c3ccncc3)c(=O)[nH]c12`, the Potency was inconclusive: 5.22 µM [inhibitor, partial curve]. With `CCOC(=O)C1=C(c2ccccc2)N=c2s/c(=C\c3ccc(O)cc3)c(=O)n2C1c1cccs1` (configuration not stated) the Potency was active: 2.62 µM. For `CCNC(=O)COC(=O)c1cc(C)nc2ccccc12`, the Potency was “inactive”. For `CCOC(=O)Nc1ccc2c(c1)N(C(=O)CCN(CC)CC)c1ccccc1CC2`, the Potency was “inactive”. For `CCN(CC)c1ccc(CNCCc2ccc(F)cc2)cc1`, the Potency was “inactive”. For `Cc1cccc(CN2CCN(Cc3ccc(Cl)cc3)CC2)c1`, the Potency was inconclusive: 18.5 µM [inhibitor, single point]. With `COc1cc(C(=O)NNC(=O)CNC(=O)c2ccc(Br)o2)cc(OC)c1OC` the Potency was “inactive”. With `CCOC(=O)c1cccc(NC(=O)C(NS(=O)(=O)c2ccc3c(c2)CCN3C(C)=O)C(C)C)c1` (configuration not stated) the Potency was inconclusive: 0.165 µM [inhibitor, full curve, poor fit]. In the case of `Cc1nnc(SCC(=O)Nc2nccs2)[nH]c1=O`, the Potency is reported as “inactive”. For `CC1CCN(S(=O)(=O)c2cc(C(=O)NC3(C)CCS(=O)(=O)C3)ccc2Br)CC1` (configuration not stated), the Potency was active: 9.28 µM. In the case of `CCN1C(=O)[C@H]2[C@@H](c3ccc(Cl)cc3)N3C(=O)CN(CCOC)C(=O)[C@@]3(C)[C@H]2C1=O`, the Potency is reported as “inactive”. With `CCOC(=O)CN1CC23C=CC(O2)C(C(=O)NC2CCCCCC2)C3C1=O` (configuration not stated) the Potency was inconclusive: 18.5 µM [inhibitor, single point]. In the case of `CC(=O)Nc1ccc(/C=C/c2nc3ccccc3[nH]c2=O)cc1`, the Potency is reported as “inactive”. For `C/C(=C\C(=O)O)C(=O)Nc1nccs1`, the Potency was inconclusive: 18.5 µM [inhibitor, single point]. With `COCCCNC(=O)c1cc(Sc2ccc(F)cc2)nc2ccccc12` the Potency was inconclusive: 16.5 µM [inhibitor, partial curve, poor fit]. For `COc1cccc2cc(/C(=N/O)c3ccc(Br)cc3)oc12`, the Potency was “inactive”. For `CCOC(=O)N1CCC(NC(=O)c2cc(C(=O)NC3CCCC3)ccc2CO)CC1`, the Potency was inconclusive: 13.1 µM [inhibitor, partial curve, poor fit]. For `COc1ccc(S(=O)(=O)N2CCN(c3nc(-c4cccnc4)nc4ccccc34)CC2)cc1`, the Potency was active: 2.08 µM. In the case of `N#C/C(C(=O)Oc1ccccc1)=C1\C=Cc2ccccc2N1`, the Potency is reported as inconclusive: 0.131 µM [inhibitor, full curve, poor fit]. In the case of `Cc1ccc(S(=O)(=O)NCCC(c2ccccc2)c2ccco2)cc1` (configuration not stated), the Potency is reported as “inactive”. In the case of `Cc1ccc(NC(=O)Cn2c(=S)[nH]c3ccccc32)cc1`, the Potency is reported as inconclusive: 0.415 µM [inhibitor, full curve, poor fit]. With `Cc1ccc(S(=O)(=O)N2CCC(=O)N(CCOCc3ccc(Cl)cc3)CC2)cc1` the Potency was “inactive”. With `O=C(/C=C/c1ccco1)c1cccnc1` the Potency was inconclusive: 2.62 µM [inhibitor, single point]. With `O=C(C1CCCN(Cc2ccc3c(c2)OCO3)C1)N1CCCC1` (configuration not stated) the Potency was inconclusive: 18.5 µM [inhibitor, single point]. For `Clc1ccc(Cn2ccnc2)cn1`, the Potency was inconclusive: 18.5 µM [inhibitor, single point]. With `CC1C=CCC2C(=O)N(c3cccc(C(=O)Nc4ccc(F)cc4)c3)C(=O)C12` (configuration not stated) the Potency was inconclusive: 18.5 µM [inhibitor, single point]. In the case of `CCC(CO)Oc1cc(NC(=O)c2ccccc2)c2ncn(C(C)C)c2c1` (configuration not stated), the Potency is reported as inconclusive: 13.1 µM [inhibitor, single point]. In the case of `O=c1[nH]c(SCc2ccccc2[N+](=O)[O-])nc2nc[nH]c12`, the Potency is reported as inconclusive: 6.57 µM [inhibitor, partial curve]. In the case of `CCOC(=O)c1c(N)n(CCOC(=O)c2cccs2)c2nc3ccccc3nc12`, the Potency is reported as inconclusive: 13.1 µM [inhibitor, single point]. For `CC(C)(C)OC(=O)C(Cl)(C(=O)OC(C)(C)C)c1ccc2nnnn2n1`, the Potency was inconclusive: 20.8 µM [inhibitor, partial curve, poor fit]. In the case of `CN1C(CC(=O)Nc2ccc(Br)cc2)c2ccccc2CC1(C)C` (configuration not stated), the Potency is reported as inconclusive: 18.5 µM [inhibitor, single point]. For `Cc1ccc(-c2noc(CN3CCC(C(N)=O)CC3)n2)cc1`, the Potency was “inactive”. With `COc1ccc(-c2cc(CCCC(=O)N3CCN(c4ccc(OC)cc4)CC3)no2)cc1` the Potency was inconclusive: 8.28 µM [inhibitor, partial curve, poor fit]. For `CCC(C)NC(=O)C1CCC(CNS(=O)(=O)c2ccc3c(c2)CC(C)N3C(C)=O)CC1` (configuration not stated), the Potency was “inactive”. In the case of `CN(C)c1cc(N/N=C/c2ccccc2C(F)(F)F)nc(N(C)C)n1`, the Potency is reported as inconclusive: 18.5 µM [inhibitor, single point]. For `C=C(C)c1cccc(C(C)(C)NC(=O)NC2CCN(Cc3ccccc3)CC2)c1`, the Potency was inconclusive: 18.5 µM [inhibitor, single point]. With `Cc1ccc(CNC(=O)C2CCN(S(=O)(=O)c3cccc4nonc34)CC2)cc1` the Potency was inconclusive: 10.4 µM [inhibitor, partial curve]. For `CC(=O)Nc1ccc2c(c1)OCCOCCOc1cc(NC(C)=O)ccc1OCCO2`, the Potency was inconclusive: 11.7 µM [inhibitor, single point]. For `CC(CNC(=O)CN1C(=O)NC2(CCOc3ccccc32)C1=O)c1ccccc1` (configuration not stated), the Potency was inconclusive: 11.7 µM [inhibitor, single point]. In the case of `CC(C)(CO)NC(=O)Nc1ccc(Cl)c(Cl)c1`, the Potency is reported as “inactive”. For `CCOc1ccc(S(=O)(=O)n2ccnc2C)cc1`, the Potency was active: 11.7 µM. With `CCn1c(SCC(=O)NCCc2ccccc2)nc2c([nH]c3ccccc32)c1=O` the Potency was “inactive”. For `O=C(NNC(=O)c1cccc(O)c1)Nc1ccc([N+](=O)[O-])cc1`, the Potency was “inactive”. With `COc1cc(C(=O)Nc2ccc3c(c2)OCCO3)ccc1OC(F)F` the Potency was inconclusive: 18.5 µM [inhibitor, single point]. For `CCC(=O)Nc1cc2c(cc1C(=O)c1ccccc1)OCCO2`, the Potency was inconclusive: 18.5 µM [inhibitor, single point]. With `O=[N+]([O-])c1ccc2[nH]nc(-c3ccccc3)c2c1` the Potency was inconclusive: 5.22 µM [inhibitor, partial curve]. For `O=C1CN(C(=O)COc2c(F)c(F)cc(F)c2F)c2ccccc2N1`, the Potency was “inactive”. In the case of `Cc1ccc2nc(N3CCN(S(=O)(=O)c4ccc(C)c(Cl)c4)CC3)c(C#N)cc2c1`, the Potency is reported as inconclusive: 18.5 µM [inhibitor, single point]. For `COc1cc(C(=O)OCC(=O)c2ccc(S(=O)(=O)N3CCCCC3)cc2)cc(OC)c1OC`, the Potency was inconclusive: 16.5 µM [inhibitor, partial curve, poor fit]. For `Cn1c(CNC(=O)CNC(=O)c2ccc(F)cc2)cc(=O)n(C)c1=O`, the Potency was inconclusive: 18.5 µM [inhibitor, single point]. With `Cc1ccc(S(=O)(=O)NCc2ccccn2)cc1C` the Potency was inconclusive: 10.4 µM [inhibitor, single point]. In the case of `O=S(=O)(c1cc(Cl)ccc1Cl)n1nnc2ccccc21`, the Potency is reported as “inactive”. For `Cc1nn(Cc2ccccc2)c(=O)c2nn(-c3ccc(Cl)cc3)c(C)c12`, the Potency was inconclusive: 16.5 µM [inhibitor, partial curve, poor fit]. In the case of `O=C(NC1CCN(C(=O)Nc2cccc(F)c2)CC1)c1ccco1`, the Potency is reported as “inactive”. With `CCc1nnc(NC(=O)NCN2C(=O)C3C4C=CC(C4)C3C2=O)s1` (configuration not stated) the Potency was inconclusive: 18.5 µM [inhibitor, single point]. In the case of `COc1ccccc1C1(O)CCN(CC(=O)Nc2nc(-c3ccccc3)cs2)CC1`, the Potency is reported as “inactive”. With `Nc1c(C(=O)N2CCOCC2)oc2ccccc12` the Potency was inconclusive: 9.28 µM [inhibitor, partial curve]. With `CCC(Sc1nc2ccncc2[nH]1)C(=O)Nc1cc(Cl)ccc1C` (configuration not stated) the Potency was inconclusive: 11.7 µM [inhibitor, partial curve, poor fit]. For `Cc1occc1C(=O)N/N=C/C(Br)=C\c1ccccc1`, the Potency was active: 1.31 µM. With `CCc1c(C)[nH]n(-c2nc(-c3ccccc3)cs2)c1=O` the Potency was “inactive”. In the case of `CCc1nnc(NC(=O)CCC(=O)N2CCN(c3cc(C)ccc3C)CC2)s1`, the Potency is reported as “inactive”. For `COc1ccc(-c2cc3ccc(OC(C)C(=O)O)cc3oc2=O)cc1` (configuration not stated), the Potency was inconclusive: 11.7 µM [inhibitor, single point]. For `O=C(COC(=O)c1cc(=O)[nH]c2ccccc12)NCc1ccc(Cl)cc1`, the Potency was inconclusive: 1.17 µM [inhibitor, single point]. For `CCN1C(=O)c2ccccc2S(=O)c2ccc(C(=O)NC3CC3)cc21` (configuration not stated), the Potency was inconclusive: 3.7 µM [inhibitor, single point]. With `Cc1ccc2[nH]c(=O)c(CNS(=O)(=O)c3ccccc3)c(-c3ccccc3)c2c1` the Potency was “inactive”. In the case of `CCn1c(CNC(=O)C2CCCCC2)cc2ccccc21`, the Potency is reported as active: 9.28 µM. With `Cc1cc(C(=O)CSc2ccc(F)cc2)cc(C)c1O` the Potency was “inactive”. For `OCC[C@@H]1C[C@@H](O)[C@H](O)[C@@]2(CCCc3ccccc3O2)O1`, the Potency was “inactive”. In the case of `COc1ccc(C2C(C#N)=C(N)OC3=C2C(=O)CC(C)(C)C3)cc1OC` (configuration not stated), the Potency is reported as inconclusive: 2.62 µM [inhibitor, full curve, poor fit].
